± gives the standard deviation. The entries are a selection whose mix differs from that of the whole data set. Many entries were measured with a wide error.
Test system: MILI (PIWIL2) piRISC loaded with L1MC piRNA (26 nt)
Assay: pre-steady-state target cleavage rate (min^-1); MIWI and MILI are mouse PIWI proteins and EfPiwi is from a freshwater sponge; tags in brackets are library labels; higher = faster piRNA-guided slicing of the target
Conditions: guide: L1MC piRNA 5'p-UAACUAAAUACUAUGCAAGCUGUAGG; auxiliary factor: 500 nM mouse GTSF1
In short: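 The pre-steady-state cleavage rate was calculated from a burst-and-steady-state fit. Data came from Cleave-'n-Seq, in which […] transcribed, DNA-blocked target RNA library was mixed with 1 nM active affinity-purified piRISC carrying one synthetic guide, with or without 500 nM GTSF1 partner protein, in HEPES–potassium acetate buffer at 33 °C for 0–8 or 0–960 min. Uncleaved targets were sequenced and normalised to depth and to weakly complementary targets, three trials were pooled, and k3 was capped at 0.0001 min^-1.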
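Note: 1 nM active piRISC with 0.1 nM target library at 33 °C single turnover.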

Sequence	pre-steady-state target cleavage rate
UCCUCCUACAGCUUGCUAUGUAUUUUCAAA	0.006 ± 0.0037
UCCUGGAUCAGCUUGCAAAGUAUUUUCAAA	0.00923 ± 0.0045
UCCUGGAACAGCUUGCAUUCAAUUUAGUUA	0.00304 ± 0.004
UCCUGGAUGUCGAAGCCAUAGUAUUUAGUUA	0.00267 ± 0.0036
UCCUCCAACAGCUUGCAUAGUAUUUAGUUA	0.329 ± 0.017
UCCUGGAUGAGCUUGCAAUGUAUUUAGUAA	0.0194 ± 0.0045
UCCUGGAUGUCGAUGCAUAGUUUUUUGUUA	0.00354 ± 0.0051
UCCUGGAUGUCGAAGAUAGUAUUUAGUUA	0.00154 ± 0.0043
UCCUGGAUGUCCUUGCAUAGUUUAUAGUUA	0.0111 ± 0.006
UCCUGGAUCAGCUUGCAUAGUAUAUACAAA	0.0964 ± 0.023
UCCUGGAUGUCCUUGGAUAGUAUAUAGUUA	0.165 ± 0.035
UCCUGCUACUCCUUGCAUAGUAUUUACAAA	0.0669 ± 0.016
UCCUGGAUGUCGAACGUUAGUAUUUAUUUA	0.000168 ± 0.038
UCCUGGAUGUCGACGCAUAGUAUUUAGUUA	0.0214 ± 0.0042
UCCUCCUACAGCUUGCAUAGUAUAAACAAA	0.165 ± 0.043
UCCUGGAUGUCGAAGCAUAGUUAUUAGUUA	0.00245 ± 0.0048
UCCUGGAUCAGCUUGCAAUGUAUUUAGAAA	0.0496 ± 0.013
UCCUGGAUGUCGAAGCAUAGUAUUAAGUAA	0.0172 ± 0.0065
UCCUCCUAGUCCUUGCAUAGUAUUUUCAAA	0.0344 ± 0.013
UCCUGGUACAGCUUGGUAAGUAUUUAGUAA	0.18 ± 0.034

Sequence	pre-steady-state target cleavage rate
UCCUGGAUCUCCUUGCAUAGUAUUUACAAA	0.0872 ± 0.018
UCCUCCUUGUGCUUGCAUAGUAUUUUCAAA	0.0192 ± 0.0073
UCCUGGAUGUCGAACCAUUGUAUUUAGUUA	0.000336 ± 0.017
UCCUGGAUGUCCUUGCAUAGUAUUAUGUUA	0.00972 ± 0.0046
UCCUGGAACAGCUUGCAUACGUAUUUAGUUA	0.00209 ± 0.0063
UCCUGGAUCAGCUUGCAUAGUAUUAACAAA	0.0885 ± 0.022
UCCUGGAUGUCGUUGCAUUCUAUUUAGUUA	0.0011 ± 0.0092
UCCUGCUACAGGAUGCAUAGUAUUUAGAAA	0.0163 ± 0.0074
UCCUGGUACAGCUAGCAUAGUAUUUUCAAA	0.0662 ± 0.02
UCCUGGAUGUCGAUGCCAUAGUAUUUAGUUA	0.00491 ± 0.0034
UCCUGGAUGUGCUUGACAUAGUAUUUAGUUA	0.0338 ± 0.009
UCCUCCUACACCUUGCAUAGUAUUUUCAAA	0.0721 ± 0.021
UCCUGGUAGAGCUUGCAUAGUAUUUACAAA	0.015 ± 0.0066
UCCUGGAACAGCUUGCAUAGUAUAUAGAAA	0.0917 ± 0.026
UCCUGGAUGUCGUUGCAAUGUAUUUAGUUA	0.00171 ± 0.0063
UCCUGGAUGUCGAACCUAGUAUUUAGUUA	0.000458 ± 0.011
UCCUCCUACACGAUGCAUAGUAUUUAGAAA	0.102 ± 0.021
UCCUGGAUGUCCUUGCAUUGAAUUUAGUUA	0.00493 ± 0.0046
UCCUGGAUGUGCUUGCAUAGAUAAAUCAAA [g11:g20:cont:t1A]	0.000565 ± 0.018
UCCUGGAUGUCGUUGCAUAGUAUUUUGUAA	0.00161 ± 0.0069

Same assay, conditions: guide: L1MC piRNA 5'p-UAACUAAAUACUAUGCAAGCUGUAGG; auxiliary factor: none (no GTSF1)

Sequence	pre-steady-state target cleavage rate
UCCUCCUACAGCUUGCUAUGUAUUUUCAAA	0.000669 ± 0.006
UCCUGGAUCAGCUUGCAAAGUAUUUUCAAA	0.00088 ± 0.0067
UCCUGGAACAGCUUGCAUUCAAUUUAGUUA	0.002 ± 0.0029
UCCUGGAUGUCGAAGCCAUAGUAUUUAGUUA	0.000591 ± 0.0087
UCCUCCAACAGCUUGCAUAGUAUUUAGUUA	0.00861 ± 0.0027
UCCUGGAUGAGCUUGCAAUGUAUUUAGUAA	0.00717 ± 0.0024
UCCUGGAUGUCGAUGCAUAGUUUUUUGUUA	0.00241 ± 0.0033
UCCUGGAUGUCGAAGAUAGUAUUUAGUUA	0.000436 ± 0.0096
UCCUGGAUGUCCUUGCAUAGUUUAUAGUUA	0.00247 ± 0.0026
UCCUGGAUCAGCUUGCAUAGUAUAUACAAA	0.00134 ± 0.0043
UCCUGGAUGUCCUUGGAUAGUAUAUAGUUA	0.0038 ± 0.0025
UCCUGCUACUCCUUGCAUAGUAUUUACAAA	0.00117 ± 0.004
UCCUGGAUGUCGAACGUUAGUAUUUAUUUA	0.000124 ± 0.048
UCCUGGAUGUCGACGCAUAGUAUUUAGUUA	0.00381 ± 0.0021
UCCUCCUACAGCUUGCAUAGUAUAAACAAA	0.000929 ± 0.0058
UCCUGGAUGUCGAAGCAUAGUUAUUAGUUA	0.00217 ± 0.0024
UCCUGGAUCAGCUUGCAAUGUAUUUAGAAA	0.00148 ± 0.0045
UCCUGGAUGUCGAAGCAUAGUAUUAAGUAA	0.000612 ± 0.0085
UCCUCCUAGUCCUUGCAUAGUAUUUUCAAA	0.00162 ± 0.0039
UCCUGGUACAGCUUGGUAAGUAUUUAGUAA	0.00367 ± 0.0027

Sequence	pre-steady-state target cleavage rate
UCCUGGAUCUCCUUGCAUAGUAUUUACAAA	0.000768 ± 0.0059
UCCUCCUUGUGCUUGCAUAGUAUUUUCAAA	0.00157 ± 0.0037
UCCUGGAUGUCGAACCAUUGUAUUUAGUUA	0.000328 ± 0.009
UCCUGGAUGUCCUUGCAUAGUAUUAUGUUA	0.000657 ± 0.012
UCCUGGAACAGCUUGCAUACGUAUUUAGUUA	0.0014 ± 0.0046
UCCUGGAUCAGCUUGCAUAGUAUUAACAAA	0.000824 ± 0.0068
UCCUGGAUGUCGUUGCAUUCUAUUUAGUUA	0.000388 ± 0.014
UCCUGCUACAGGAUGCAUAGUAUUUAGAAA	0.00123 ± 0.0035
UCCUGGUACAGCUAGCAUAGUAUUUUCAAA	0.00119 ± 0.0061
UCCUGGAUGUCGAUGCCAUAGUAUUUAGUUA	0.000595 ± 0.011
UCCUGGAUGUGCUUGACAUAGUAUUUAGUUA	0.00218 ± 0.0049
UCCUCCUACACCUUGCAUAGUAUUUUCAAA	0.00114 ± 0.0044
UCCUGGUAGAGCUUGCAUAGUAUUUACAAA	0.000808 ± 0.0073
UCCUGGAACAGCUUGCAUAGUAUAUAGAAA	0.00108 ± 0.0056
UCCUGGAUGUCGUUGCAAUGUAUUUAGUUA	0.00255 ± 0.0031
UCCUGGAUGUCGAACCUAGUAUUUAGUUA	0.000146 ± 0.012
UCCUCCUACACGAUGCAUAGUAUUUAGAAA	0.00138 ± 0.0048
UCCUGGAUGUCCUUGCAUUGAAUUUAGUUA	0.00269 ± 0.0034
UCCUGGAUGUGCUUGCAUAGAUAAAUCAAA [g11:g20:cont:t1A]	0.000352 ± 0.018
UCCUGGAUGUCGUUGCAUAGUAUUUUGUAA	0.000924 ± 0.008

— the supplement of paper PMC10338343
